This is one part of the list. The main result of the screen is listed elsewhere. These columns were measured beside it and carry no call. The list favours compounds with an active or inconclusive main result. Words in brackets tell the shape of the fitted curve; partial curves, single points and poor fits give uncertain potencies.
Assay: qHTS Assay to Find Inhibitors of Chronic Active B-Cell Receptor Signaling
Conditions: ABC-DLBCL IkBa-CBG/CBR reporter, luminescence ratio (green luciferase fused to IkBa over red control in TMD8 lymphoma cells), 4 h
Procedure, shortened: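 Concentration-response series (up to 46 uM) were applied to TMD8 dual-reporter cells for 4 h at 37C with doxycycline. Green/red ratio, after filter-overlap correction, defined %Activity; red signal alone was normalised to basal cells and zero luminescence.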

[1] = measured here: CBR red luminescence, cell number
[2] = measured here: IkBa-CBG green luminescence

| SMILES | AC50 [1] | AC50 [2] |
| --- | --- | --- |
| O=c1c2ccccc2nc2sc(Nc3cccc(C(F)(F)F)c3)nn12 | 0.0891 µM [falling, full curve, poor fit] |  |
| O=C(O)c1ccc(CSc2nnnn2C2CCCCC2)cc1 | 29.1 µM [rising, single point] |  |
| O=C(CN1C(=O)S/C(=C\C=C\c2ccccc2)C1=O)Nc1cccc(O)c1 | 20.6 µM [falling, single point] |  |
| COc1ccccc1C1c2ccc3ccccc3c2Oc2ncn(CCCO)c(=N)c21 (centres undefined) | 35.5 µM [falling, single point] |  |
| COc1cccc(CNC(=O)c2ccc(Cl)c(S(=O)(=O)N3CCOCC3)c2)c1 | 2.91 µM [rising, single point] |  |
| COc1cc(/C=C(\C#N)c2nc3c(s2)CCCC3)ccc1O | 5.8 µM [rising, single point] |  |
| CCOc1ccc(/C=C2\SC(=S)N(CCC(=O)Nc3ccc(C(=O)O)cc3)C2=O)cc1 | 0.631 µM [falling, full curve, poor fit] |  |
| CN1C(=O)/C(=C/c2ccc(O)c([N+](=O)[O-])c2)NC1=S | 1 µM [rising, full curve, poor fit] |  |
| CC1(C)OC(=O)C(=CNCC(=O)NCC(=O)O)C(=O)O1 | 16.4 µM [falling, partial curve] |  |
| COc1ccc(-c2[nH]c(-c3ccc(C(=O)O)cc3)nc2-c2ccccc2)cc1 | 3.55 µM [falling, partial curve, poor fit] |  |
| O=C1CCS/C(=N\N=C\c2ccc(Cl)cc2Cl)N1 | 4.47 µM [rising, full curve, poor fit] |  |
| NC(=O)C1CC(=O)N(c2ccc(OCC(=O)Nc3ccc(F)cc3)cc2)C1 (centres undefined) | 1.84 µM [rising, partial curve, poor fit] |  |
| CCCC(=O)c1ccc(N2CCCCC2)c(F)c1 | 35.5 µM [rising, single point] |  |
| COc1cc2c(cc1OC)CN(c1nc(CN3CCCC3)nc3sc(C)c(C)c13)CC2 | 35.5 µM [falling, single point] |  |
| O=C(NCc1ccc2c(c1)OCO2)c1cccc([N+](=O)[O-])c1 | 25.9 µM [rising, single point] |  |
| Cc1ccc(-c2csc(NC(=O)COC(=O)c3cccc(S(=O)(=O)N4CCOCC4)c3)n2)cc1 | 4.47 µM [rising, single point] |  |
| O=C(Nc1ccc(N2CCN(C(=O)c3ccco3)CC2)cc1)c1ccccc1 | 3.55 µM [rising, single point] |  |
| Fc1ccc(-c2nc3c(Cl)cc(C(F)(F)F)cn3c2Cl)cc1 | 9.2 µM [rising, partial curve] |  |
| Oc1nc(Nc2ccccc2)sc1/C=C1\C=Nc2ccccc21 | 15.8 µM [falling, partial curve] |  |
| CCCC(=O)NC(=S)Nc1ccc(CN2CCOCC2)cc1 | 5.62 µM [rising, single point] |  |
| COc1cc(N)ccc1Cc1ccc(N)cc1OC | 22.4 µM [falling, single point] |  |
| COc1ccc(/C=N\NC(=O)COc2ccc(C(C)(C)C)cc2)cc1Cn1nc(C)cc1C | 0.411 µM [falling, full curve, poor fit] |  |

Sorted by count of non-hydrogen atoms (largest number first): some entries from above.

| SMILES | AC50 [1] | AC50 [2] |
| --- | --- | --- |
| COc1cc2c(cc1OC)CN(c1nc(CN3CCCC3)nc3sc(C)c(C)c13)CC2 | 35.5 µM [falling, single point] |  |
| O=C(CN1C(=O)S/C(=C\C=C\c2ccccc2)C1=O)Nc1cccc(O)c1 | 20.6 µM [falling, single point] |  |
| CN1C(=O)/C(=C/c2ccc(O)c([N+](=O)[O-])c2)NC1=S | 1 µM [rising, full curve, poor fit] |  |

Next part

| SMILES | AC50 [1] | AC50 [2] |
| --- | --- | --- |
| Cc1ccc2cc(S(=O)(=O)NCCC(=O)O)ccc2c1 | 18.4 µM [falling, partial curve, poor fit] |  |
| FC(F)(F)c1cc(-c2ccco2)nc(NCc2ccccc2)n1 | 14.1 µM [falling, single point] |  |
| COc1ccc(CN(C)C(=O)Cc2ccc(OC)c(S(=O)(=O)N3CCOCC3)c2)cc1 | 6.51 µM [rising, partial curve, poor fit] |  |
| Cc1nc2ccc(NC(=O)c3ccc(Cl)c(S(=O)(=O)N(C)c4ccccc4)c3)cc2s1 | 0.461 µM [falling, full curve, poor fit] |  |
| O=C(NCCc1ccccc1)C(=O)Nc1ccc([N+](=O)[O-])cc1 | 22.4 µM [rising, single point] |  |
| CCCCNC(=O)C(C)N(CCN(C)C)C(=O)CCCCCN1C(=O)NC(c2ccc(Cl)cc2)C(C(=O)OCc2ccccc2)=C1C (centres undefined) | 18.4 µM [falling, partial curve, poor fit] |  |
| CCN1C/C(=C/c2cccc([N+](=O)[O-])c2)C(=O)/C(=C/c2cccc([N+](=O)[O-])c2)C1 |  | 29.1 µM [falling, partial curve, poor fit] |
| Cc1ccc(NC(=O)C(C)c2ccc(-c3ccccc3)c(F)c2)cc1 (centres undefined) | 29.1 µM [falling, single point] |  |
| CCOC(=O)CNc1c(-c2ccc(O)cc2)nc2ccccn12 | 4.47 µM [falling, partial curve] |  |
| COc1ccc(NS(=O)(=O)c2cc(NC(=O)c3ccccc3F)ccc2N2CCCC2)cc1 | 2.51 µM [falling, partial curve, poor fit] |  |
| O=C(N/N=C/c1c(F)cccc1Cl)c1cc(C2CC2)[nH]n1 | 10 µM [falling, partial curve] |  |
| CN(C)CCN(C(=O)c1ccc(N2C(=O)CCC2=O)cc1)c1nc2cc3c(cc2s1)OCCO3 | 10 µM [falling, partial curve] |  |
| COC(=O)c1ccccc1S(=O)(=O)N1CCC(NC(=O)c2ccccc2)CC1 | 6.31 µM [falling, single point] |  |
| O=C(COC(=O)CC1CCCC1)Nc1cccc(F)c1 | 1.84 µM [rising, single point] |  |
| O=S(=O)(NCc1nnc2ccccn12)c1ccc(Cl)cc1 | 10.3 µM [falling, partial curve, poor fit] |  |
| CCOC(=O)C1CCCN(S(=O)(=O)c2cc(C(=O)OC)n(C)c2)C1 (centres undefined) | 3.16 µM [rising, partial curve, poor fit] |  |
| CCOc1nc(NC(=O)NS(=O)(=O)c2ccccc2F)nc(-c2ccccc2)n1 | 0.501 µM [falling, full curve] |  |
| O=C(c1ccccc1F)N1CCOCC1 | 6.31 µM [rising, single point] |  |
| Cc1cccc(OCCCn2c(=O)sc3ccccc32)c1 | 3.98 µM [rising, partial curve] |  |
| O=C(Nc1cccc(Cl)c1)c1ccc2c(c1)OCCO2 | 20 µM [falling, partial curve, poor fit] |  |
| COc1cscc1C(N)=O | 2.51 µM [rising, full curve, poor fit] |  |
| Cc1ccc(C(=O)O)c(C(=O)Nc2nc3ccccc3s2)c1 | 12.6 µM [falling, partial curve] |  |

Reprinted at random: three entries already listed, in no set order.

| SMILES | AC50 [1] | AC50 [2] |
| --- | --- | --- |
| COc1ccc(NS(=O)(=O)c2cc(NC(=O)c3ccccc3F)ccc2N2CCCC2)cc1 | 2.51 µM [falling, partial curve, poor fit] |  |
| O=S(=O)(NCc1nnc2ccccn12)c1ccc(Cl)cc1 | 10.3 µM [falling, partial curve, poor fit] |  |
| Cc1ccc(NC(=O)C(C)c2ccc(-c3ccccc3)c(F)c2)cc1 (centres undefined) | 29.1 µM [falling, single point] |  |

More records follow.

| SMILES | AC50 [1] | AC50 [2] |
| --- | --- | --- |
| CC(OC(=O)CNC(=O)c1ccc(Cl)c([N+](=O)[O-])c1)C(=O)NC1CCCCC1C (centres undefined) | 3.66 µM [falling, partial curve] |  |
| COc1ccc(C(=O)N2N=C(c3cccs3)CC2c2ccccc2O)cc1 (centres undefined) | 3.55 µM [rising, partial curve] |  |
| CC(Oc1ccc(Cl)cc1)C(=O)N/N=C/c1ccsc1 (centres undefined) |  | 29.1 µM [falling, single point] |
| CC(=O)NCCNc1nc2c(-c3cccc(C(F)(F)F)c3)nnn2c2ccccc12 | 17.8 µM [rising, partial curve, poor fit] |  |
| N#Cc1c(C(F)(F)F)cc(-c2ccc(Cl)cc2)[nH]c1=O | 29.1 µM [falling, single point] |  |
| CCOC(=O)NC1(C(F)(F)F)C(=O)NC(C)=C1C#N (centres undefined) | 1.03 µM [falling, full curve] |  |
| COc1cc(/C=N/Nc2cc(C)nc(NS(=O)(=O)c3ccccc3)n2)ccc1O | 0.501 µM [rising, full curve] |  |
| COc1ccc(C(=O)Nc2ccc(N3CCCC3)cc2)cc1 | 0.731 µM [falling, full curve] |  |
| COc1cc(/C=N/Nc2nc(Nc3ccccc3)nc(N3CCOCC3)n2)ccc1OC(=O)c1ccco1 | 7.08 µM [falling, partial curve] |  |
| O=C(O)/C(=N/NC(=O)c1ccc(Cl)cc1)c1ccccc1 | 0.112 µM [falling, full curve, poor fit] |  |
| CCOC(=O)NC(=O)/C(C=Nc1ccc(Cl)c(Cl)c1Cl)=C(\C)O | 14.6 µM [rising, partial curve, poor fit] |  |
| Cc1ccc(Oc2nc3ccccc3n3c(C)nnc23)c(C)c1 | 29.1 µM [rising, single point] |  |
| O=C(O)c1ccccc1OCc1nc2ccccc2s1 | 1 µM [rising, full curve, poor fit] |  |
| CCOc1cccc(/C=N/NC(=S)Nc2cc(S(=O)(=O)N3CCOCC3)ccc2N2CCOCC2)c1O | 29.1 µM [falling, single point] |  |
| COc1ccc(/C=C/C(=O)O)cc1S(=O)(=O)N1CCc2ccccc2C1 |  | 31.6 µM [rising, partial curve, poor fit] |
| Cn1nc(C(=O)Nc2ccc(Br)cc2)cc1C(=O)Nc1ccc(Br)cc1 | 22.4 µM [rising, single point] |  |
| COc1cccc(/C=C/C(=O)OCC(=O)c2cc(C)n(CC3CCCO3)c2C)c1OC (centres undefined) | 16.4 µM [rising, partial curve, poor fit] |  |
| CCCc1ccc(C(=O)NNc2cccc(C)c2)cc1 | 0.1 µM [falling, full curve, poor fit] |  |
| O=C(OCC(=O)N1CCc2ccccc21)[C@@H]1CC(O)CN1S(=O)(=O)c1ccc(Cl)cc1 (some centres undefined) | 4.61 µM [rising, partial curve, poor fit] |  |
| OC(c1cc(-c2ccc(C(F)(F)F)cc2)nc(C(F)(F)F)c1)C1CCCCN1 (centres undefined) | 11.2 µM [falling, partial curve, poor fit] |  |

From PubChem BioAssay AID493014 (National Center for Advancing Translational Sciences (NCATS), 2011)
